{"source": "patent US11867686B2", "about": "“Method of selecting chemotherapeutic agents for an isolated organ or regional therapy” (Delcath Systems, Inc., priority 2012, dated 2024)", "assay": "Filter efficiency of small scale hemofiltration cartridge removing chemotherapeutic agents from circulating blood", "conditions": "bovine blood 100 mL/min", "key": {"[1]": {"conditions": "Average over time points, single drug"}, "[2]": {"conditions": "time 5 (samples every 5 minutes), single drug infused over 30 minutes"}}}
{"smiles": "COc1cccc2c1C(=O)c1c(O)c3c(c(O)c1C2=O)C[C@@](O)(C(=O)CO)C[C@@H]3O[C@H]1C[C@H](N)[C@H](O)[C@H](C)O1", "note": "[Doxorubicin]", "values": [{"measurement": "Filter efficiency", "setting": "[1]", "result": 97.33}, {"measurement": "Filter efficiency", "setting": "[2]", "result": 98.52}, {"measurement": "Filter efficiency", "setting": "time 10, single drug", "result": 97.78}, {"measurement": "Filter efficiency", "setting": "time 20, single drug", "result": 97.19}, {"measurement": "Filter efficiency", "setting": "time 25, single drug", "result": 96.36}, {"measurement": "Filter efficiency", "setting": "time 30, single drug", "result": 96.47}]}
{"smiles": "CC(=O)[C@]1(O)Cc2c(O)c3c(c(O)c2[C@@H](O[C@H]2C[C@H](N)[C@H](O)[C@H](C)O2)C1)C(=O)c1ccccc1C3=O", "note": "[Idarubicin]", "values": [{"measurement": "Filter efficiency", "setting": "[1]", "result": 58.80}, {"measurement": "Filter efficiency", "setting": "[2]", "result": 75.43}, {"measurement": "Filter efficiency", "setting": "time 10, single drug", "result": 67.00}, {"measurement": "Filter efficiency", "setting": "time 15, single drug", "result": 58.59}, {"measurement": "Filter efficiency", "setting": "time 20, single drug", "result": 52.69}, {"measurement": "Filter efficiency", "setting": "time 25, single drug", "result": 48.06}, {"measurement": "Filter efficiency", "setting": "time 30, single drug", "result": 51.02}]}
{"smiles": "N[C@@H](Cc1ccc(N(CCCl)CCCl)cc1)C(=O)O", "note": "[Melphalan]", "values": [{"measurement": "Filter efficiency", "setting": "[1]", "result": 98.03}, {"measurement": "Filter efficiency", "setting": "time 10, single drug", "result": 98.59}, {"measurement": "Filter efficiency", "setting": "time 15, single drug", "result": 97.86}, {"measurement": "Filter efficiency", "setting": "time 20, single drug", "result": 97.63}, {"measurement": "Filter efficiency", "setting": "time 30, single drug", "result": 97.04}]}
{"smiles": "N.N.O=C([O-])C1(C(=O)[O-])CCC1.[Pt+2]", "note": "[Carboplatin]", "values": [{"measurement": "Filter efficiency", "setting": "[1]", "result": 97.54}, {"measurement": "Filter efficiency", "setting": "[2]", "result": 98.96}, {"measurement": "Filter efficiency", "setting": "time 10, single drug", "result": 97.81}, {"measurement": "Filter efficiency", "setting": "time 15, single drug", "result": 97.54}, {"measurement": "Filter efficiency", "setting": "time 20, single drug", "result": 97.55}, {"measurement": "Filter efficiency", "setting": "time 30, single drug", "result": 95.95}]}
{"smiles": "Nc1ccn([C@@H]2O[C@H](CO)[C@@H](O)C2(F)F)c(=O)n1", "note": "[Gemcitabine]", "values": [{"measurement": "Filter efficiency", "setting": "[1]", "result": 99.25}, {"measurement": "Filter efficiency", "setting": "[2]", "result": 98.61}, {"measurement": "Filter efficiency", "setting": "time 15, single drug", "result": 99.36}, {"measurement": "Filter efficiency", "setting": "time 20, single drug", "result": 99.42}, {"measurement": "Filter efficiency", "setting": "time 25, single drug", "result": 99.42}, {"measurement": "Filter efficiency", "setting": "time 30, single drug", "result": 98.98}]}
